Source: paper PMC7617965, “Interaction with AK2A links AIFM1 to cellular energy metabolism” (Molecular cell, 2025)
Results are given in words; binding and its absence hold for the method and conditions named. In cells and extracts the contact can be indirect. A yes stands for co-enrichment or nearness to the bait. Other partners may have been found.

Assays:
[1] = biological target: AIFM1-HA (human) (UniProt O95831); assay: affinity purification with mass spectrometry + peptide or protein array; integration of the three datasets (label-free and SILAC co-IP of AIFM1-HA from HEK293, protein microarray with purified AIFM1); which of them found the hit is not told
[2] = biological target: SMAC^MTS-AIFM1^(103–613)-HA (human) (UniProt O95831); assay: affinity purification with mass spectrometry; IP of HA from AIFM1 KO cells inducibly and stably expressing AIFM1-HA or SMAC-MTS-AIFM1(103-613)-HA; the two interactomes compared
[3] = biological target: AIFM1-HA (human) (UniProt O95831); assay: as above

Measured: binding

B1: MIA40, endogenous (protein, UniProt Q8N4Q1 1-142)
chain: MSYCRQEGKDRIIFVTKEDHETPSSAELVADDPNDPYEEHGLILPNGNINWNCPCLGGMASGPCGEQFKSAFSCFHYSTEEIKGSDCVDQFRAMQECMQKYPDLYPQEDEDEEEEREKKPAEQAEETAPIEATATKEEEGSS
binds: all assays above
